Measurements as given in US20230174630A1 (UNIVERSITY OF BRITISH COLUMBIA, published 2023).
Positions count from the first letter of the chain named. No constants are given. Whether binding was seen depends on the method and setting. Some results given as binding are weak or reduced against the parent protein; the word gives no strength. For some assays here: Tags and fused reporters may be left off the sequences shown.

T1: DAGWGNL (SEQ ID NO: 1) peptide conjugated to bovine serum albumin (human)
T1 sequence (peptide, conjugated to BSA): DAGWGNL

B1: rabbit monoclonal antibody 14H1-14K2 (antibody, V domains shown)
VH: QEQLEESGGDLVKPEGSLTLTCTASGFSFSSNYVMCWVRQAPGKGLEWVACIWFAGIVDTTYYATWAKGRFTISKTSSTTVTLQMTSLTAADTATYFCARNPVGSVNLWGQGTLVTVS
VL: VMTQTPSSKSVPVGGSVTINCQASESVYSNNRLSWYQQKPGQPPKLLIYYASTLESGVPSRFKGSGFGTHFTLTISGAQCDDAATYYCAGWRGARTDGVDFGGGTEVVVK
B2: rabbit monoclonal antibody 1H3-1K3 (antibody, V domains shown)
VH: QSVEESGGRLVTPGTPLTLTCTVSGFSLSRYYMTWVRQAPGKGLEYIGVIIPGGTTYYASWAKGRFTISKTSTTVDLRITSPTTEDTATYFCAGGPTGNSHFTLWGQGTLVTVS
VL: VMTQTPSSKSVPVGGTVTINCQASESVYNNNHLSWYQQKSGQPPKLLIYEASKLESGVPPRFKGSGSGTQFTLTISDVVCDDAATYYCSGYKRVTTDGIAFGGGTEVVVK
B3: rabbit monoclonal antibody 17H3-17K3 (antibody, V domains shown)
VH: QEQLVESGGGLVQPGASLTLTCTASGFSFSSSYVMCWVRQAPGKGLEWITCSDTGINTWYASWAKGRFTISKTSSTTVTLQMTSLTAADTATYFCARRYTGDTYLGNFNLWGQGTLVTVS
VL: AQVLTQTPASVSAAVGGTVTINCQASQSVYKNNYLSWYQQKPGQPPKLLIYKASTLASGVPSRFKGSGSGTQFTLTISDVQCDDAATYYCAGGWRSLNAFGGGTEVVVK
B4: mouse monoclonal antibody 2F7 (antibody, V domains shown)
VH: DVKLVESGGGLVKLGGSLKLSCAASGFTFSSYYMSWVRQTPEKRLELVATINSNGGSTYYPDTVKGRITISRDNAKNTLQLQMSSLRSEDTALYYCVRQNYEGAYWGQGTLVTVSA
VL: DVLMTQTPLSLPVTLGDQASISCRSSQSIVHSNGNTYLEWYLQKPGQSPKLLIYKVSNRFSGVPDRFSGSGSGTDFTLKISRVEAEDLGVYYCFQSSHVPWTFGGGTKLEIK
B5: mouse monoclonal antibody 3E8 (antibody, V domains shown)
VH: B4 VH
VL: B4 VL
B6: MYCH15L-2F7 (scFv)
scFv: MDVKLVESGGGLVKLGGSLKLSCAASGFTFSSYYMSWVRQTPEKRLELVATINSNGGSTYYPDTVKGRITISRDNAKNTLQLQMSSLRSEDTALYYCVRQNYEGAYWGQGTLVTVSAGGGGSGGGGSGGGGSDVLMTQTPLSLPVTLGDQASISCRSSQSIVHSNGNTYLEWYLQKPGQSPKLLIYKVSNRFSGVPDRFSGSGSGTDFTLKISRVEAEDLGVYYCFQSSHVPWTGGGTKLEIKGSGEQKLISEEDL
B7: MYCL15H-14H1-14K2 (scFv)
scFv: MAIVMTQTPSSKSVPVGGSVTINCQASESVYSNNRLSWYQQKPGQPPKLLIYYASTLESGVPSRFKGSGFGTHFTLTISGAQCDDAATYYCAGWRGARTDGVDFGGGTEVVVKGGGGSGGGGSGGGGSQEQLEESGGDLVKPEGSLTLTCTASGFSFSSNYVMCWVRQAPGKGLEWVACIWFAGIVDTTYYATWAKGRFTISKTSSTTVTLQMTSLTAADTATYFCARNPVGSVNLWGQGTLVTVSSGSGEQKLISEEDL
B8: MYCL15H-2F7 (scFv)
scFv: MDVLMTQTPLSLPVTLGDQASISCRSSQSIVHSNGNTYLEWYLQKPGQSPKLLIYKVSNRFSGVPDRFSGSGSGTDFTLKISRVEAEDLGVYYCFQSSHVPWTGGGTKLEIKGGGGSGGGGSGGGGSDVKLVESGGGLVKLGGSLKLSCAASGFTFSSYYMSWVRQTPEKRLELVATINSNGGSTYYPDTVKGRITISRDNAKNTLQLQMSSLRSEDTALYYCVRQNYEGAYWGQGTLVTVSAGSGEQKLISEEDL
B9: MYCL20H-14H1-14K2 (scFv)
scFv: MAIVMTQTPSSKSVPVGGSVTINCQASESVYSNNRLSWYQQKPGQPPKLLIYYASTLESGVPSRFKGSGFGTHFTLTISGAQCDDAATYYCAGWRGARTDGVDFGGGTEVVVKGSTGGGGSGKPGSGEGGGGSQEQLEESGGDLVKPEGSLTLTCTASGFSFSSNYVMCWVRQAPGKGLEWVACIWFAGIVDTTYYATWAKGRFTISKTSSTTVTLQMTSLTAADTATYFCARNPVGSVNLWGQGTLVTVSSGSGEQKLISEEDL
notes: Intrabody: VL-20 aa linker-VH-GSG-MYC tag
B10: MYCH20L-14H1-14K2 (scFv)
scFv: MQEQLEESGGDLVKPEGSLTLTCTASGFSFSSNYVMCWVRQAPGKGLEWVACIWFAGIVDTTYYATWAKGRFTISKTSSTTVTLQMTSLTAADTATYFCARNPVGSVNLWGQGTLVTVSSGSTGGGGSGKPGSGEGGGGSAIVMTQTPSSKSVPVGGSVTINCQASESVYSNNRLSWYQQKPGQPPKLLIYYASTLESGVPSRFKGSGFGTHFTLTISGAQCDDAATYYCAGWRGARTDGVDFGGGTEVVVKGSGEQKLISEEDL
B11: rabbit monoclonal antibody 38H1-38K1 (antibody, V domains shown)
VH: B2 VH with L28F, R30A, Y46F, I50T, G53I, T55R, D76H, R78K, T89A
VL: B2 VL with G15D, H32Q, S40P, E50Q, P60S, S89A, R93S, V94P
B12: mouse monoclonal antibody 3F11 (antibody, V domains shown)
VH: B4 VH with G10D, T50V, S53T, I68F, Q80Y, R87K
VL: B4 VL with T14S
B13: LYS-14H1-14K2 (scFv)
scFv: MDYKDDDDKQEQLEESGGDLVKPEGSLTLTCTASGFSFSSNYVMCWVRQAPGKGLEWVACIWFAGIVDTTYYATWAKGRFTISKTSSTTVTLQMTSLTAADTATYFCARNPVGSVNLWGQGTLVTVSGGGGSGGGGSGGGGSVMTQTPSSKSVPVGGSVTINCQASESVYSNNRLSWYQQKPGQPPKLLIYYASTLESGVPSRFKGSGFGTHFTLTISGAQCDDAATYYCAGWRGARTDGVDFGGGTEVVVKGGGGSKSIRSGYEVM
B14: YPTL-2F7 (scFv)
scFv: MDVKLVESGGGLVKLGGSLKLSCAASGFTFSSYYMSWVRQTPEKRLELVATINSNGGSTYYPDTVKGRITISRDNAKNTLQLQMSSLRSEDTALYYCVRQNYEGAYWGQGTLVTVSAGGGGSGGGGSGGGGSDVLMTQTPLSLPVTLGDQASISCRSSQSIVHSNGNTYLEWYLQKPGQSPKLLIYKVSNRFSGVPDRFSGSGSGTDFTLKISRVEAEDLGVYYCFQSSHVPWTFGGGTKLEIKDYKDDDDKRWRKSHSSSYTPLSGSTYPEGRH
B15: LYS-2F7 (scFv)
scFv: MDYKDDDDKDVKLVESGGGLVKLGGSLKLSCAASGFTFSSYYMSWVRQTPEKRLELVATINSNGGSTYYPDTVKGRITISRDNAKNTLQLQMSSLRSEDTALYYCVRQNYEGAYWGQGTLVTVSAGGGGSGGGGSGGGGSDVLMTQTPLSLPVTLGDQASISCRSSQSIVHSNGNTYLEWYLQKPGQSPKLLIYKVSNRFSGVPDRFSGSGSGTDFTLKISRVEAEDLGVYYCFQSSHVPWTFGGGTKLEIKGGGGSKSIRSGYEVM
B16: YPTL-14H1-14K2 (scFv)
scFv: MQEQLEESGGDLVKPEGSLTLTCTASGFSFSSNYVMCWVRQAPGKGLEWVACIWFAGIVDTTYYATWAKGRFTISKTSSTTVTLQMTSLTAADTATYFCARNPVGSVNLWGQGTLVTVSSGGGGSGGGGSGGGGSVMTQTPSSKSVPVGGSVTINCQASESVYSNNRLSWYQQKPGQPPKLLIYYASTLESGVPSRFKGSGFGTHFTLTISGAQCDDAATYYCAGWRGARTDGVDFGGGTEVVVKDYKDDDDKRWRKSHSSSYTPLSGSTYPEGRH
B17: MYCH20L-2F7 (scFv)
scFv: MDVKLVESGGGLVKLGGSLKLSCAASGFTFSSYYMSWVRQTPEKRLELVATINSNGGSTYYPDTVKGRITISRDNAKNTLQLQMSSLRSEDTALYYCVRQNYEGAYWGQGTLVTVSAGSTGGGGSGKPGSGEGGGGSDVLMTQTPLSLPVTLGDQASISCRSSQSIVHSNGNTYLEWYLQKPGQSPKLLIYKVSNRFSGVPDRFSGSGSGTDFTLKISRVEAEDLGVYYCFQSSHVPWTGGGTKLEIKGSGEQKLISEEDL

Biological target: T1, DAGWGNL (SEQ ID NO: 1) peptide conjugated to bovine serum albumin (human)
Test: SPR on peptide-BSA

binding, binds:
B1
B2
B3
B4
B5

Biological target: HA-tagged ΔNLS-TDP-43 (human) (UniProt Q13148)
Test: immunocytochemistry, transfected HEK293FT cells, 10 ug/ml

binding, binds:
B4

Biological target: HA-tagged ΔNLS-TDP-43 (human) (UniProt Q13148)
Test: co-localization immunocytochemistry (anti-MYC / anti-HA), co-transfected HEK293 cells

binding, binds:
B6
B7
B8
B9
B10

Biological target: HA-tagged ΔNLS-TDP-43 (human) (UniProt Q13148)
Test: summary table; immunocytochemistry, binding to ΔNLS TDP-43 cytoplasmic aggregates

binding, binds:
B1
B11
B4
B12
B5

Biological target: HA-tagged ΔNLS-TDP-43 (human) (UniProt Q13148)
Test: co-localization immunocytochemistry (anti-FLAG / anti-HA), co-transfected HEK293 cells

binding, binds:
B13
B14
B15
B16

Biological target: HA-tagged ΔNLS-TDP-43 (human) (UniProt Q13148)
Test: immunocytochemistry, transfected HEK293FT cells; binding to ΔNLS TDP-43 cytoplasmic aggregates

binding, binds:
B1
B11
B4
B12
B5

Biological target: HA-tagged ΔNLS-TDP-43 (human) (UniProt Q13148)
Test: immunocytochemistry (confocal co-localization) of HEK293T cells co-transfected with HA-tagged dNLS-TDP43 and the scFv; anti-c-Myc detects the scFv, anti-HA detects dNLS-TDP43, DAPI in the merge

binding, binds:
B17
